In this experiment the target is RomR-PopZ^H3H4-GFP bait fusion protein (Bdellovibrio bacteriovorus). As to the kind of experiment: POLAR.

Results are given in words; binding and its absence hold for the method and conditions named. Binding can be weak; no strength is given. Tags and fused reporters may be left off the sequences shown.

B1: SgmX (Bd2492) fused to mScarlet (protein, UniProt Q6MKB3 1-353)
chain: MSTYIELEIQNLLNQGSDQNIDLAEVATRLVSSIESSPDHFTLDNITALSRFLIQSGNELVLVEFVLRHLENESFPIPWPYFLEALSAFSEELDEKSVRALIDGIEEDGAQEEASRSLALRQTIQSLGEWRSNRKYKIHKDYLNNKRLLLDQLITLRTQQLYEQEKSLLARLQKLYPGDSDIRREVNEHKQRYALEILSRRTPRSRGVKTEDFSPKDPETEQALQVLMQSMHEHAETDPSMAFDFAIAAYMLESYEDALSLLSFSDESETLIWFRLEVLLKCRRFVELLTDLAKVEVVFAHEPETFFATAYLRAQALWGLGQKHTAIEVMEGLLAARPHYRAASALLSIWGGQ
For the molecule B1, the binding entry is recorded as “binds”.

For the origin of these results see article doi:10.1101/2023.11.29.569176.
